This is one part of the list.
How the values were obtained:
Experiment in all cases: log2 fold change, soluble protein after heating vs DMSO (PISA); higher = thermal stabilisation; K562 lysate, 10 uM; active = over 0.2 and 3.5 SD of the protein, either way, in both replicates (recomputed)
ibrutinib = compound: C=CC(=O)N1CCC[C@@H](n2nc(-c3ccc(Oc4ccccc4)cc3)c3c(N)ncnc32)C1 [ibrutinib]
Method in brief: (§1)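 A 30 min treatment with 10 μM compound was applied to crude K562 extract at 1 mg/mL protein in PBS pH 7.4 with 1 mM MgCl2. Heating for 3 min spanned 48°C-58°C, after which aliquots were pooled, adjusted to 0.5% NP-40 at 4°C and spun at 21,000xg for 90 min. TMTpro 16plex LC-MS/MS of the supernatant, with channel sums equalised, gave values recorded as log-two fold change in thermal stability against solvent controls, from duplicates.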

Protein sequences, listed by entry. Tags and fused reporters are not part of them. Lines headed by an entry give the natural chain unless they say otherwise; changes in a name come on top.
UniProt Q15054: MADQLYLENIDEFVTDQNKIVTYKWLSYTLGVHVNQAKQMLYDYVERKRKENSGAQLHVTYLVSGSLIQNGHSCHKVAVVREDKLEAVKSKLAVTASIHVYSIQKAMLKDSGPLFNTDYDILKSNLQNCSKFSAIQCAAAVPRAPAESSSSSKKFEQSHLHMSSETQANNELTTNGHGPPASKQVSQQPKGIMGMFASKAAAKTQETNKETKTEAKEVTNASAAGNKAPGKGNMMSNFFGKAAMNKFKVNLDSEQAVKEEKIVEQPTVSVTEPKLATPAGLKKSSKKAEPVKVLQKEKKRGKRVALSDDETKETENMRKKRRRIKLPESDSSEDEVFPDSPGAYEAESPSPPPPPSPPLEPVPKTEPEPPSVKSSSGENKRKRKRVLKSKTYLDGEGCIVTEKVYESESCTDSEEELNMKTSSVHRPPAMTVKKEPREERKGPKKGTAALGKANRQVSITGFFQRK
UniProt O75334: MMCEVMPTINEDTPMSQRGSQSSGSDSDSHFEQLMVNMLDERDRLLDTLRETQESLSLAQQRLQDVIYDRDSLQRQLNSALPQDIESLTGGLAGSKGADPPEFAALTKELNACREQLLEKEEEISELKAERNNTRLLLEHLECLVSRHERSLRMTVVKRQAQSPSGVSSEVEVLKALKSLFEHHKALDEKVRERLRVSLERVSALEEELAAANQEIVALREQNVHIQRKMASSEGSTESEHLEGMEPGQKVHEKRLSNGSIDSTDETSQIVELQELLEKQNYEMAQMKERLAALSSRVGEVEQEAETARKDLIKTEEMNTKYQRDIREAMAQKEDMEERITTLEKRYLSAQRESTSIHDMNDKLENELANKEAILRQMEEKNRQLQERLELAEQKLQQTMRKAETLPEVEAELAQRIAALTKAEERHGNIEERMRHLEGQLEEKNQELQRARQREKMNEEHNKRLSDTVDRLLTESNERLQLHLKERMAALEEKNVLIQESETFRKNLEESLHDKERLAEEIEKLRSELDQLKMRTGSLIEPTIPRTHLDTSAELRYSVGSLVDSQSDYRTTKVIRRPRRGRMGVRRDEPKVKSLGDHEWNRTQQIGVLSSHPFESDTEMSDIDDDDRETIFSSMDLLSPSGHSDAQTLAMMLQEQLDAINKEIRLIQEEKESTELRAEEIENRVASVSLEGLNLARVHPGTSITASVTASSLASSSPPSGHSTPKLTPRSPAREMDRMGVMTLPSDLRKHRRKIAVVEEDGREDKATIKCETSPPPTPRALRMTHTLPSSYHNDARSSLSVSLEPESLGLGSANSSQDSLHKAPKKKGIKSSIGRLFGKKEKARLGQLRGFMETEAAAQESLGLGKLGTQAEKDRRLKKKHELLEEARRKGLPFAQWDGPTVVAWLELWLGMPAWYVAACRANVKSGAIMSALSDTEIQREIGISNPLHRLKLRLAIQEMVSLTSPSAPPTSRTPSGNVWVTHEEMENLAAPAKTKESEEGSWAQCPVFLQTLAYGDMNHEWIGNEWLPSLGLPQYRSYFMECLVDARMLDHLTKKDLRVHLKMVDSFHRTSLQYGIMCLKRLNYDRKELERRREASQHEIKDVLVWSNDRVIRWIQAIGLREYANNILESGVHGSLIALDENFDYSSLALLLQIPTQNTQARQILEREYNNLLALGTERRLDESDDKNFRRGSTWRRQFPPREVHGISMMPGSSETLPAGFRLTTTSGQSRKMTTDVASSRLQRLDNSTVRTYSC
UniProt Q9GZS1, whole entry, looked up: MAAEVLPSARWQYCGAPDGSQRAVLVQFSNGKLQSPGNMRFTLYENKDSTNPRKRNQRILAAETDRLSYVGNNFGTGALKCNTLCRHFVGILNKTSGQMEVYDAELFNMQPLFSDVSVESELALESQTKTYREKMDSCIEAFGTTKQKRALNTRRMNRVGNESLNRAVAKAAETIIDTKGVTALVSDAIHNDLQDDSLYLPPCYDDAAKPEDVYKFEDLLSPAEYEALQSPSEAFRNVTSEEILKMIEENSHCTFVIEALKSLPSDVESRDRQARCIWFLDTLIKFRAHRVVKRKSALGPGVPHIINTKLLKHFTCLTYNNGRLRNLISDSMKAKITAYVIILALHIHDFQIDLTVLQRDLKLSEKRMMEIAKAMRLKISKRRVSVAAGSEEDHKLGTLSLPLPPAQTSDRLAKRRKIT
UniProt Q9H2U2: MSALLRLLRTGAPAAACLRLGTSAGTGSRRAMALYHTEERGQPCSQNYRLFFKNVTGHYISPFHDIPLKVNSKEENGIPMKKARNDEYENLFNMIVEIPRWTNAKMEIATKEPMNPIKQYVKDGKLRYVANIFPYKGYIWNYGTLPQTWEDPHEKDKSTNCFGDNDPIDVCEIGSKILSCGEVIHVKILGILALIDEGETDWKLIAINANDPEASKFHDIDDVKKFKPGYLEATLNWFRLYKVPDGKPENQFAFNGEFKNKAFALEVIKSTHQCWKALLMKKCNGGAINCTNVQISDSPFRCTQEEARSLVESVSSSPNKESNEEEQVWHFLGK
UniProt Q9NW08: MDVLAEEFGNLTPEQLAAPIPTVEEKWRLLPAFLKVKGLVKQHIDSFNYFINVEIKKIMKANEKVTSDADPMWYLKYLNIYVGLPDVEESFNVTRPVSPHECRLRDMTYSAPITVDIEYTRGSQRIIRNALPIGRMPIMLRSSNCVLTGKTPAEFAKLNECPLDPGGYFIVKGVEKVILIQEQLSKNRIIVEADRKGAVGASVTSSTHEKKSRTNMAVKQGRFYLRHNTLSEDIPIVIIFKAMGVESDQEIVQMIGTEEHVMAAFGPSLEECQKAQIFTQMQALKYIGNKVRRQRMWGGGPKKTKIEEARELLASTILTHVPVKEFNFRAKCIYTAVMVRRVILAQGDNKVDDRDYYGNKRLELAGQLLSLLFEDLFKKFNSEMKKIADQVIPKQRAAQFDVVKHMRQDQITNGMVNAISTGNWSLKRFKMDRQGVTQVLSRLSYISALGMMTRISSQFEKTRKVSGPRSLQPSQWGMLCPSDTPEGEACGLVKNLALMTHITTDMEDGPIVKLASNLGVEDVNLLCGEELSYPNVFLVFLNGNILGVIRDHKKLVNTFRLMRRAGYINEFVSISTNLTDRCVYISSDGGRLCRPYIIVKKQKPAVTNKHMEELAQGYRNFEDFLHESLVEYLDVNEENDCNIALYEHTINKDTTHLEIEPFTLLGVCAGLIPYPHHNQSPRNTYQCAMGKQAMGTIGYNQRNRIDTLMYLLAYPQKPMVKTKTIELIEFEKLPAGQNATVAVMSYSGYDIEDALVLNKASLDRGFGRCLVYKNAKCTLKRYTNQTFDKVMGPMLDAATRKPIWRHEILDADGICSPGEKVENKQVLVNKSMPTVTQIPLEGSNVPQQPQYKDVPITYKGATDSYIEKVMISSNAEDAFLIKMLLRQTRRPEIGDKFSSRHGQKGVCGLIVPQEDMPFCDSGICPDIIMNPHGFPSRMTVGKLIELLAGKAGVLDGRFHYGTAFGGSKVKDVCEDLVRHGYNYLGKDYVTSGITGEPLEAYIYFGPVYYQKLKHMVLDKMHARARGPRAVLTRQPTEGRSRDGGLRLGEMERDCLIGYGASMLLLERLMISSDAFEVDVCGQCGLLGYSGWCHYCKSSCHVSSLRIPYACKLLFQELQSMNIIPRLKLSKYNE
UniProt Q8TD55: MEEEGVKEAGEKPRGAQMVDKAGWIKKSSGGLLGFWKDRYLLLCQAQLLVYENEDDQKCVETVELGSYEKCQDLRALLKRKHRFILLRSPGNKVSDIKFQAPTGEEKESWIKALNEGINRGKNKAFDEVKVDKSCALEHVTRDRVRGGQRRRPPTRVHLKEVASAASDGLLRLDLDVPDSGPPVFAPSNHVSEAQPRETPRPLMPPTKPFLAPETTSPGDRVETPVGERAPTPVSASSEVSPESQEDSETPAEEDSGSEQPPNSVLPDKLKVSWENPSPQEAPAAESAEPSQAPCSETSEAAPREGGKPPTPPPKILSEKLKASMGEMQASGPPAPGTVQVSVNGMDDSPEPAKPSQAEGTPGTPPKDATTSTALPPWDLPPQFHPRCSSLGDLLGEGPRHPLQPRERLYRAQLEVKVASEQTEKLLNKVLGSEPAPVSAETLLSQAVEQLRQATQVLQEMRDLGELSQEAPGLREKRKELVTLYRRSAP
UniProt Q9UNP9: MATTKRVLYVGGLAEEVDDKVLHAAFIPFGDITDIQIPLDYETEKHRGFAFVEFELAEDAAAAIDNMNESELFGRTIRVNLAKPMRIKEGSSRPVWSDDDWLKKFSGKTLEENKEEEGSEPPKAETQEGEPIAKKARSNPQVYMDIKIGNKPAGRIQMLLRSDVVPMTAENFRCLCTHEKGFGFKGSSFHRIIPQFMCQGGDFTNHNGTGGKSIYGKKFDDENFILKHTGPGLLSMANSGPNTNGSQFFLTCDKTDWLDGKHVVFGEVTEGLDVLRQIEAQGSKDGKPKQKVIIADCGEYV
UniProt A5A3E0, whole entry, looked up: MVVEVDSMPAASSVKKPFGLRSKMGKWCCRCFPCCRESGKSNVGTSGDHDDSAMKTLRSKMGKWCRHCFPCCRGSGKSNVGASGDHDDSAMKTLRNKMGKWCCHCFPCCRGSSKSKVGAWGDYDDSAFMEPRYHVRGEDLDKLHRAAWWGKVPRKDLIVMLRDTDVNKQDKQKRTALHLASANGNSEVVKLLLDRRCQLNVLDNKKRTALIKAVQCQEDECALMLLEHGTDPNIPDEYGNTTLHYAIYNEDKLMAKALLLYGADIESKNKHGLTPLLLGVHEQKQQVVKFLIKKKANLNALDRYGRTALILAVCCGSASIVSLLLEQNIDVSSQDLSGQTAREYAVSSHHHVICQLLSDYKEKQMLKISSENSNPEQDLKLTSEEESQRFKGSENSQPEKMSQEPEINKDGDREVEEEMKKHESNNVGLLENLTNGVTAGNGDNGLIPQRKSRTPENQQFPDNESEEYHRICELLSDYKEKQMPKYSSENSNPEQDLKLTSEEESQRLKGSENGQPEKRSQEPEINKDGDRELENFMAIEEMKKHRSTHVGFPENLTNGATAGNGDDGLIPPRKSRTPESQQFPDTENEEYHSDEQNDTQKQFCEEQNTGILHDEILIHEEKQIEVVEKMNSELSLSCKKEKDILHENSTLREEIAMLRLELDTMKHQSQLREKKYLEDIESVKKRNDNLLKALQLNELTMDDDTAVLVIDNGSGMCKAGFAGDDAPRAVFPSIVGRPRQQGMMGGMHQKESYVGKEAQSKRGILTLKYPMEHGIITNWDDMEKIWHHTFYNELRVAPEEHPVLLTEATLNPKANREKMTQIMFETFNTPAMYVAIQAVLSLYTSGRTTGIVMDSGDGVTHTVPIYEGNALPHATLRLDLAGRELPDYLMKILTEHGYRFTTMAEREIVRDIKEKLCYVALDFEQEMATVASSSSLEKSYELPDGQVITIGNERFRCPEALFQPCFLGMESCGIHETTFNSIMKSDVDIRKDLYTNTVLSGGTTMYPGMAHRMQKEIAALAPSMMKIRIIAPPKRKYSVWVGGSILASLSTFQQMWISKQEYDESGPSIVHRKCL
UniProt Q9UHN1: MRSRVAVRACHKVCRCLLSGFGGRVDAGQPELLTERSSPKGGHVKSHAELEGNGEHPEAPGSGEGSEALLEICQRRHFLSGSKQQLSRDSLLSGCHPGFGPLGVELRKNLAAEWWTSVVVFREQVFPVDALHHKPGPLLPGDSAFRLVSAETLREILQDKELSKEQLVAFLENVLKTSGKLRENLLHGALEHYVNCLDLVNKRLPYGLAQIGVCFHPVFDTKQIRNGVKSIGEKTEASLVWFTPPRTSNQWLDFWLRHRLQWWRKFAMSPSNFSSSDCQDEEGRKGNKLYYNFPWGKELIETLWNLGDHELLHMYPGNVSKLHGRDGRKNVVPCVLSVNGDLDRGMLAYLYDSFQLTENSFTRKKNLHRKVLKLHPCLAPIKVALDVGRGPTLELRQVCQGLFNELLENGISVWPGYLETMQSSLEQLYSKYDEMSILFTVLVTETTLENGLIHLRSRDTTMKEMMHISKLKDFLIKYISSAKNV
UniProt O95707: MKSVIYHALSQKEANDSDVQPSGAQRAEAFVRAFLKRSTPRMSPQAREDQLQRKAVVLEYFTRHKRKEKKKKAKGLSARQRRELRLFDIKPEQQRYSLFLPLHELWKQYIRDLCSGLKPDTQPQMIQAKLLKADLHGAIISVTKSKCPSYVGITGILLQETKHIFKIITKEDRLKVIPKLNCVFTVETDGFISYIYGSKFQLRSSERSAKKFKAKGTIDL
UniProt O75817: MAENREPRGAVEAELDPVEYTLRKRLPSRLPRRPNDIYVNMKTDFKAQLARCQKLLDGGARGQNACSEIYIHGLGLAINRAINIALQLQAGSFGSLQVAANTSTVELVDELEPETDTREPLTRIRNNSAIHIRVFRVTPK
UniProt Q9NRX1: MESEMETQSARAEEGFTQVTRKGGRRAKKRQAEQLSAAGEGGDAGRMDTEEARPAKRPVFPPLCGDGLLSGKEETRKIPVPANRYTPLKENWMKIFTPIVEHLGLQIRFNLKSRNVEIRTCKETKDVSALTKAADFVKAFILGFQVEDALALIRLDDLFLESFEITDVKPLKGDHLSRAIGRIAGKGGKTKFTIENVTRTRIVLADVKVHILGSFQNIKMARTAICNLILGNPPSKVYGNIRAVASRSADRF

[1] = compound: CC(=O)c1cnc2ccc(-c3cc(Cl)c(O)c(Cl)c3)nc2c1N[C@H]1CC[C@H](CN(C)C)CC1
Method in brief: as §1

ralimetinib = compound: CC(C)(C)Cn1c(N)nc2ccc(-c3[nH]c(C(C)(C)C)nc3-c3ccc(F)cc3)nc21 [ralimetinib]
Method in brief: as §1

[2] = compound: CC(C)(O)CC(=O)NCCn1ccc2ncnc(Nc3ccc(Oc4cccc(C(F)(F)F)c4)c(Cl)c3)c21
Method in brief: as §1

[3] = compound: CC(C)C1=C2N=C(C=C(N2N=C1)NCC3=CC=CC=C3)NCCCCCCN
Method in brief: as §1

[4] = compound: CC1=C(C(CC(=O)N1)C2=CC=C(C=C2)C(F)(F)F)C(=O)NC3=C(C=C4C(=C3)C=NN4)F
Method in brief: as §1

[5] = compound: CC1=C(C2=C(C=C1)C(=O)C3=CC=CC=C3N2CCCN)C
Method in brief: as §1

[6] = compound: CC1=C(C=C(C=C1)NC(=O)C2=CC(=CC=C2)C(C)(C)C#N)NC3=CC4=C(C=C3)N=CN(C4=O)C
Method in brief: as §1

[7] = compound: CC1=C(C=C(C=C1)NC(=O)C2=CC(=CC=C2)N(C)C)NC(=O)C3=CC=C(C=C3)O
Method in brief: as §1

[8] = compound: CC1=CC=C(C=C1)SC2=C3C=C(SC3=CN=C2)C(=O)N
Method in brief: as §1

vemurafenib = compound: CCCS(=O)(=O)Nc1ccc(F)c(C(=O)c2c[nH]c3ncc(-c4ccc(Cl)cc4)cc23)c1F [vemurafenib]
Method in brief: as §1

[9] = compound: CCCS(=O)(=O)Nc1ccc(F)c(C(=O)c2c[nH]c3ncc(Cl)cc23)c1F
Method in brief: as §1

barasertib = compound: CCN(CCCOc1ccc2c(Nc3cc(CC(=O)Nc4cccc(F)c4)[nH]n3)ncnc2c1)CCOP(=O)(O)O [barasertib]
Method in brief: as §1

[10] = compound: CC[C@@H]1C(=O)N(C)c2cnc(Nc3ccc(C(=O)NC4CCN(C)CC4)cc3OC)nc2N1C1CCCC1
Method in brief: as §1

volasertib = compound: CC[C@@H]1C(=O)N(C)c2cnc(Nc3ccc(C(=O)N[C@H]4CC[C@H](N5CCN(CC6CC6)CC5)CC4)cc3OC)nc2N1C(C)C [volasertib]
Method in brief: as §1

[11] = compound: CCn1c(C(=O)N(C2CC2)C2CC2)cc2c3c(ncn3C)c(Nc3cc(C)n(C)n3)nc21
Method in brief: as §1

[12] = compound: CCn1cc(-c2ccnc3[nH]c(-c4cccc(CN(C)C)c4)cc23)c(-c2ccc(NC(=O)N(C)C)cc2)n1
Method in brief: as §1

[13] = compound: CN1CCC(CNc2ccc3ncc(-c4cccc(OC(F)(F)F)c4)n3n2)CC1
Method in brief: as §1

saracatinib = compound: CN1CCN(CCOc2cc(OC3CCOCC3)c3c(Nc4c(Cl)ccc5c4OCO5)ncnc3c2)CC1 [saracatinib]
Method in brief: as §1

sotrastaurin = compound: CN1CCN(c2nc(C3=C(c4c[nH]c5ccccc45)C(=O)NC3=O)c3ccccc3n2)CC1 [sotrastaurin]
Method in brief: as §1

Row | Target | log2 fold change (ibrutinib) | log2 fold change [1] | log2 fold change (ralimetinib) | log2 fold change [2] | log2 fold change [3] | log2 fold change [4] | log2 fold change [5] | log2 fold change [6] | log2 fold change [7] | log2 fold change [8] | log2 fold change (vemurafenib) | log2 fold change [9] | log2 fold change (barasertib) | log2 fold change [10] | log2 fold change (volasertib) | log2 fold change [11] | log2 fold change [12] | log2 fold change [13] | log2 fold change (saracatinib) | log2 fold change (sotrastaurin)
1 | POLD3 (UniProt Q15054) | inactive: 0.018 | inactive: 0.006 | inactive: -0.027 | inactive: -0.004 | inactive: 0.035 | inactive: 0.019 | inactive: -0.008 | inactive: -0.022 | inactive: -0.017 | inactive: -0.038 | inactive: 0.003 | inactive: -0.005 | inactive: 0.004 | inactive: -0.014 | inactive: -0.045 | inactive: -0.013 | inactive: 0.009 | inactive: -0.03 | inactive: 0.028 | inactive: -0.01
2 | PNN (UniProt Q9H307) | inactive: 0.033 | inactive: 0.01 | inactive: 0.007 | inactive: -0.02 | inactive: -0.011 | inactive: 0 | inactive: 0.024 | inactive: 0.052 | inactive: -0.013 | inactive: -0.015 | inactive: -0.052 | inactive: -0.034 | inactive: -0.006 | inactive: 0.037 | inactive: 0.056 | inactive: 0.001 | inactive: 0.036 | inactive: 0.072 | inactive: -0.039 | inactive: -0.015
3 | PPFIA2 (UniProt O75334) | inactive: -0.013 | inactive: 0.01 | inactive: 0.085 | inactive: 0.015 | inactive: 0.006 | inactive: 0.041 | inactive: 0.02 | inactive: 0.047 | inactive: 0.033 | inactive: -0.022 | inactive: 0.062 | inactive: -0.018 | inactive: 0.054 | inactive: 0.01 | inactive: 0.02 | inactive: -0.127 | inactive: -0.255 | inactive: 0.146 | inactive: -0.016 | inactive: -0.05
4 | POLR1E (UniProt Q9GZS1) | inactive: -0.04 | inactive: 0.005 | inactive: 0.018 | inactive: -0.004 | inactive: -0.013 | inactive: -0.022 | inactive: 0.006 | inactive: 0.01 | inactive: 0.026 | inactive: 0.032 | inactive: -0.03 | inactive: 0.006 | inactive: 0.018 | inactive: -0.037 | inactive: -0.004 | inactive: -0.015 | inactive: -0.021 | inactive: 0.002 | inactive: 0.017 | inactive: 0.029
5 | PPA2 (UniProt Q9H2U2) | inactive: 0.011 | inactive: 0.007 | inactive: -0.009 | inactive: 0.003 | inactive: 0.009 | inactive: -0.013 | inactive: 0.016 | inactive: 0.004 | inactive: -0.012 | inactive: 0.018 | inactive: 0.016 | inactive: 0.027 | inactive: -0.017 | inactive: 0.004 | inactive: -0.014 | inactive: -0.016 | inactive: -0.042 | inactive: 0.032 | inactive: 0 | inactive: -0.014
6 | POLR3B (UniProt Q9NW08) | inactive: 0.003 | inactive: 0.005 | inactive: 0.008 | inactive: -0.029 | inactive: -0.01 | inactive: -0.012 | inactive: -0.046 | inactive: -0.022 | inactive: 0.02 | inactive: 0.034 | inactive: -0.006 | inactive: 0.002 | inactive: 0.02 | inactive: 0 | inactive: -0.01 | inactive: 0.02 | inactive: 0.022 | inactive: -0.02 | inactive: 0.021 | inactive: 0.032
7 | PLEKHO2 (UniProt Q8TD55) | inactive: 0.358 | inactive: -0.102 | inactive: -0.11 | inactive: 0.108 | inactive: 0.006 | inactive: 0.01 | inactive: 0.069 | inactive: 0.048 | inactive: 0.252 | inactive: -0.129 | inactive: 0.034 | inactive: 0.247 | inactive: 0.161 | inactive: 0.068 | inactive: 0.151 | inactive: 0.126 | inactive: 0.136 | inactive: 0.016 | inactive: 0.278 | inactive: -0.054
8 | PPIE (UniProt Q9UNP9) | inactive: -0.047 | inactive: -0.015 | inactive: -0.041 | inactive: -0.05 | inactive: -0.025 | inactive: -0.043 | inactive: 0.021 | inactive: 0.024 | inactive: 0.034 | inactive: -0.035 | inactive: 0.026 | inactive: -0.043 | inactive: -0.042 | inactive: 0.044 | inactive: 0.018 | inactive: -0.003 | active: -0.25 | inactive: 0.143 | inactive: -0.01 | inactive: 0.067
9 | POTEF (UniProt A5A3E0) | inactive: -0.01 | inactive: -0.022 | inactive: 0.028 | inactive: -0.02 | inactive: -0.026 | inactive: -0.021 | inactive: 0.02 | inactive: 0.049 | inactive: 0 | inactive: 0.004 | inactive: 0.016 | inactive: 0.051 | inactive: 0.014 | inactive: 0.065 | inactive: -0.099 | inactive: 0.019 | inactive: -0.018 | inactive: 0.013 | inactive: 0.018 | inactive: 0.01
10 | PLRG1 (UniProt O43660) | inactive: -0.015 | inactive: -0.024 | inactive: 0.011 | inactive: -0.01 | inactive: -0.015 | inactive: -0.041 | inactive: 0.02 | inactive: -0.014 | inactive: 0.019 | inactive: -0.011 | inactive: 0.01 | inactive: -0.003 | inactive: 0.018 | inactive: -0.011 | inactive: -0.032 | inactive: -0.016 | inactive: -0.052 | inactive: 0.024 | inactive: 0.009 | inactive: 0.024
11 | POLG2 (UniProt Q9UHN1) | inactive: 0.033 | inactive: -0.009 | inactive: 0.048 | inactive: 0.007 | inactive: -0.01 | inactive: 0.017 | inactive: -0.052 | inactive: 0.01 | inactive: -0.017 | inactive: -0.058 | inactive: 0.018 | inactive: 0.026 | inactive: -0.05 | inactive: 0.077 | inactive: 0.007 | inactive: -0.003 | inactive: 0.016 | inactive: 0.009 | inactive: -0.018 | inactive: 0.015
12 | POP4 (UniProt O95707) | inactive: -0.057 | inactive: 0.002 | inactive: 0.049 | inactive: -0.044 | inactive: -0.028 | inactive: -0.04 | inactive: 0.021 | inactive: 0.028 | inactive: -0.093 | inactive: 0.047 | inactive: -0.029 | inactive: 0.011 | inactive: -0.025 | inactive: -0.005 | inactive: -0.042 | inactive: -0.03 | inactive: -0.04 | inactive: 0.03 | inactive: -0.005 | inactive: -0.053
13 | POLR2A, A0A590UJN4 | inactive: -0.009 | inactive: -0.015 | inactive: -0.003 | inactive: -0.006 | inactive: 0.014 | inactive: 0.012 | inactive: 0.003 | inactive: -0.042 | inactive: 0.048 | inactive: 0.021 | inactive: 0.006 | inactive: 0.011 | inactive: 0.026 | inactive: -0.015 | inactive: -0.058 | inactive: 0.012 | inactive: -0.048 | inactive: -0.01 | inactive: 0 | inactive: -0.02
14 | POP7 (UniProt O75817) | inactive: 0.111 | inactive: -0.011 | inactive: 0.002 | inactive: 0.042 | inactive: 0.097 | inactive: 0.133 | inactive: -0.006 | inactive: 0.005 | inactive: -0.01 | inactive: -0.042 | inactive: -0.049 | inactive: 0.071 | inactive: 0.128 | inactive: 0.04 | inactive: 0.005 | inactive: -0.014 | inactive: -0.073 | inactive: -0.032 | inactive: 0.064 | inactive: -0.024
15 | POLG (UniProt P54098) | inactive: 0.08 | inactive: 0.153 | inactive: 0.032 | inactive: -0.042 | inactive: 0.012 | inactive: -0.005 | inactive: -0.043 | inactive: 0.141 | inactive: -0.032 | inactive: -0.061 | inactive: -0.01 | inactive: -0.045 | inactive: -0.046 | inactive: 0.017 | inactive: -0.087 | inactive: -0.035 | inactive: -0.207 | inactive: 0.166 | inactive: 0.002 | inactive: -0.055
16 | PNO1 (UniProt Q9NRX1) | inactive: 0.022 | inactive: -0.021 | inactive: 0.042 | inactive: -0.024 | inactive: -0.036 | inactive: 0.013 | inactive: -0.015 | inactive: -0.001 | inactive: 0.018 | inactive: 0.004 | inactive: 0.009 | inactive: 0.041 | inactive: 0.003 | inactive: 0.009 | inactive: 0.006 | inactive: -0.049 | inactive: 0.025 | inactive: -0.062 | inactive: -0.007 | inactive: -0.032

At a glance, some entries already given:
Row | Target | log2 fold change (ibrutinib) | log2 fold change [1] | log2 fold change (ralimetinib) | log2 fold change [2] | log2 fold change [3] | log2 fold change [4] | log2 fold change [5] | log2 fold change [6] | log2 fold change [7] | log2 fold change [8] | log2 fold change (vemurafenib) | log2 fold change [9] | log2 fold change (barasertib) | log2 fold change [10] | log2 fold change (volasertib) | log2 fold change [11] | log2 fold change [12] | log2 fold change [13] | log2 fold change (saracatinib) | log2 fold change (sotrastaurin)
14 | POP7 (UniProt O75817) | inactive: 0.111 | inactive: -0.011 | inactive: 0.002 | inactive: 0.042 | inactive: 0.097 | inactive: 0.133 | inactive: -0.006 | inactive: 0.005 | inactive: -0.01 | inactive: -0.042 | inactive: -0.049 | inactive: 0.071 | inactive: 0.128 | inactive: 0.04 | inactive: 0.005 | inactive: -0.014 | inactive: -0.073 | inactive: -0.032 | inactive: 0.064 | inactive: -0.024
15 | POLG (UniProt P54098) | inactive: 0.08 | inactive: 0.153 | inactive: 0.032 | inactive: -0.042 | inactive: 0.012 | inactive: -0.005 | inactive: -0.043 | inactive: 0.141 | inactive: -0.032 | inactive: -0.061 | inactive: -0.01 | inactive: -0.045 | inactive: -0.046 | inactive: 0.017 | inactive: -0.087 | inactive: -0.035 | inactive: -0.207 | inactive: 0.166 | inactive: 0.002 | inactive: -0.055
